Experimental data reported in PMC8570024.
Results are given in words; binding and its absence hold for the method and conditions named. Binding seen in cells or lysates may run through a third protein. Some binding calls cover weakened binding; strength is not graded here.

By UniProt entry, the sequences of proteins in these tests, tags left out.
UniProt Q16665: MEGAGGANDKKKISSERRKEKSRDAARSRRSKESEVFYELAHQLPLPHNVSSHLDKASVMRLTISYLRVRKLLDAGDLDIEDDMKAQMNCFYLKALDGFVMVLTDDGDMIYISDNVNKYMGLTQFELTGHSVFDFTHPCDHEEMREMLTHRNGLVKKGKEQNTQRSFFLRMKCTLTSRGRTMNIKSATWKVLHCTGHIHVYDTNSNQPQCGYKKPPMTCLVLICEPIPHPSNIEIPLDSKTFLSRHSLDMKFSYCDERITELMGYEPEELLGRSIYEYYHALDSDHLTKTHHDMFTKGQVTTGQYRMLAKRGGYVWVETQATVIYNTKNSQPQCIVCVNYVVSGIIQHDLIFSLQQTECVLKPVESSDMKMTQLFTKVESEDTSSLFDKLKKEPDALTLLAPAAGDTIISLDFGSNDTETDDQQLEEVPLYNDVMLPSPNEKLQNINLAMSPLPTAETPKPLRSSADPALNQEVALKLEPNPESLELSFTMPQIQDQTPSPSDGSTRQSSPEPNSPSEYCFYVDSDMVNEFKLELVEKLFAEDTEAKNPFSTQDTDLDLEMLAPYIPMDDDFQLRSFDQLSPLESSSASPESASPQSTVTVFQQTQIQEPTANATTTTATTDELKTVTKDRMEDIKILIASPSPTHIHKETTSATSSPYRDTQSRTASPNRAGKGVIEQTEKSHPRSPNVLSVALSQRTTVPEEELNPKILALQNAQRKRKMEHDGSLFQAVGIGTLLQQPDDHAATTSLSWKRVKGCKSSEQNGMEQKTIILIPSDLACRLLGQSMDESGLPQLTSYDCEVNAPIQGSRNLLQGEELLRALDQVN
UniProt Q93009: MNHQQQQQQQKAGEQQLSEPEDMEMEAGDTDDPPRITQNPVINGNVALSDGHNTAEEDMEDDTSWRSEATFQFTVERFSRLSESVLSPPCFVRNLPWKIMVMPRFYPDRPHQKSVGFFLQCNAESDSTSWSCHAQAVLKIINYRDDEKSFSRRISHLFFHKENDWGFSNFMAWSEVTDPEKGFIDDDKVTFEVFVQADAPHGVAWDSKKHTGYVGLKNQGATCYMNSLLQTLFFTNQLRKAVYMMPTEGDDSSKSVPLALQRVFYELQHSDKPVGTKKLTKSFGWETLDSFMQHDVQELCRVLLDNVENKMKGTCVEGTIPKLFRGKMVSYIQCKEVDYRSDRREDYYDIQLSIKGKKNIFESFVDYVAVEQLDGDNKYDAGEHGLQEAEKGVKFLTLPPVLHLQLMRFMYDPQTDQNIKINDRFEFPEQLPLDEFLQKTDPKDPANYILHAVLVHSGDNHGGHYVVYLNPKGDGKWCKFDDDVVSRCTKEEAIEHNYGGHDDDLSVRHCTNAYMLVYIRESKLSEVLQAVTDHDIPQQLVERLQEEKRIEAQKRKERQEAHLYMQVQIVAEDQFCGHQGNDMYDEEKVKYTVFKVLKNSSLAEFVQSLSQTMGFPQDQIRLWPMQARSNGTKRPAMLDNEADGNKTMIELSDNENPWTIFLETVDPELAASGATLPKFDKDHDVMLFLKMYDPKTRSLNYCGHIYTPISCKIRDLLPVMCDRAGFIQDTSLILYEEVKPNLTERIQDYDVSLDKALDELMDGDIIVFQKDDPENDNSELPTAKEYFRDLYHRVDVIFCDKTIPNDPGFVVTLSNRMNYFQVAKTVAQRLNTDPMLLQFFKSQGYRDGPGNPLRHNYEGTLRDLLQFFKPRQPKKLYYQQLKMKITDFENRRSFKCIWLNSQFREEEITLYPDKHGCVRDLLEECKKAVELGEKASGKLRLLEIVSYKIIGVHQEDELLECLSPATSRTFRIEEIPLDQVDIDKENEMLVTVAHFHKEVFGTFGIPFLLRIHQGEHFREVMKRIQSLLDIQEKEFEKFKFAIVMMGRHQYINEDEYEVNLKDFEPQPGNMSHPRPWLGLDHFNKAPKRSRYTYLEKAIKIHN

Biological target: Flag-HIF-1α (UniProt Q16665)
Experiment: co-IP; Flag-HIF-1α and Xpress-USP7 co-transfected into HEK293T; immunoprecipitation with α-Flag beads or α-Xpress beads, immunoblotting with α-Xpress or α-Flag antibody; 1% of whole cell lysate as input

binding: binds
Substance: Xpress-USP7 (from UniProt Q93009 1-1102) (enzyme)
